The target in assay [1] is T1, Histidine (His6)-tagged Rv2623 expressed in M. smegmatis mc2155 (M. tuberculosis) (UniProt P9WFD7).
T1 sequence: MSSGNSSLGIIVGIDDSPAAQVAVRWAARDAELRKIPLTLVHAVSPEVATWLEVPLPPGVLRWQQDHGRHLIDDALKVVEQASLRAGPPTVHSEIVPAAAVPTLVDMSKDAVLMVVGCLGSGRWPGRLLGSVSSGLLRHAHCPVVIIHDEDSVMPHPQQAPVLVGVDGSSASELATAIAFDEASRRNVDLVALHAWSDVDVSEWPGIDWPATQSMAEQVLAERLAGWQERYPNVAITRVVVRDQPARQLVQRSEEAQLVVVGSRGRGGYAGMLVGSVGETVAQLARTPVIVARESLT
Briefly: pull-down; both purified.

Sequences of proteins named here, by UniProt entry; tags and fusion partners are left off. Residues count along the entry.
UniProt O65934, 201-310: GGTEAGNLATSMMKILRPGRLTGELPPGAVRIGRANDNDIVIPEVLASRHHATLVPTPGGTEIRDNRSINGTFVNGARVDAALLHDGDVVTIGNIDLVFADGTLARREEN

The target of assay [2] is T2, Mycobacterium tuberculosis universal stress protein Rv2623, GAL4 DNA-binding domain fusion (pGBKT7::Rv2623) (M. tuberculosis) (UniProt P9WFD7).
T2 sequence: T1 sequence
Briefly: two-hybrid.

Results are given in words; binding and its absence hold for the method and conditions named. Some binding calls cover weakened binding; strength is not graded here. Tags and fused reporters may be left off the sequences shown.

Turning to “N-terminal FLAG-FHA II fusion (Rv1747 amino acids 201-310), pSD vector-expressed (from UniProt O65934 201-310) (domain or fragment)”, the binding result in assay [1] is “no binding”.

B1: Mycobacterium tuberculosis universal stress protein Rv2623, GAL4 DNA-binding domain fusion (pGBKT7::Rv2623) (protein, UniProt P9WFD7 1-297)
chain: T1 sequence
Take B1: the binding entry in assay [2] was “binds”.

The values are drawn from article PMC5549992.
